This is an account of results in paper PMC12043515, “Stepwise neofunctionalization of the NF-κB family member Rel during vertebrate evolution”.

Chains of the proteins cited; added tags and fusions are not shown. Residues count along the entry.
UniProt Q04207, 19-306: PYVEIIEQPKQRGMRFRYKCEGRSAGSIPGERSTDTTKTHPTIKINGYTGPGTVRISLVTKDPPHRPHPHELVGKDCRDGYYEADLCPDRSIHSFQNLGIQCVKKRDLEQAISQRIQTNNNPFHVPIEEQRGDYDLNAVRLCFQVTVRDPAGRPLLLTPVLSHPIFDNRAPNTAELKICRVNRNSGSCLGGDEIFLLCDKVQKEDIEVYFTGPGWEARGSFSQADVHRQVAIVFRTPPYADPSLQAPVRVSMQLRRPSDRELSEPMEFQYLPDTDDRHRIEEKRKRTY
UniProt A0ACM8Q4Y4, entry or part of it: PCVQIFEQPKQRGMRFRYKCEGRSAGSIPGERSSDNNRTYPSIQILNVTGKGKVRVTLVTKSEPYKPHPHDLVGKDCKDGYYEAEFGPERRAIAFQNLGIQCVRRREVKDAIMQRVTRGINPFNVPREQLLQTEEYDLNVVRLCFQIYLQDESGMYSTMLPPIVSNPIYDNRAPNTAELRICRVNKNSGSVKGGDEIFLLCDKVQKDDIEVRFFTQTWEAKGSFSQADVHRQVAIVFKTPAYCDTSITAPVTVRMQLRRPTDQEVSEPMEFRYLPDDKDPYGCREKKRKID
UniProt Q04206, 19-306: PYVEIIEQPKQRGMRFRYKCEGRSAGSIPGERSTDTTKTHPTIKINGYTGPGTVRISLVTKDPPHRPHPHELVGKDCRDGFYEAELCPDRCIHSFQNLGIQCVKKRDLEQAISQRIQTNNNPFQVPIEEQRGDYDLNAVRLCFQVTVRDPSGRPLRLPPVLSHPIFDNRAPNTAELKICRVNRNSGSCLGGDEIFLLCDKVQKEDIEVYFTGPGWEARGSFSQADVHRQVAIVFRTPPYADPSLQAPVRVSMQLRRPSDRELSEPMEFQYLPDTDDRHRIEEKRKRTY

The target of one data set is RelA RHR homodimer (UniProt Q04207). As to the kind of experiment: SPR. As to conditions: much weaker than Rel; SPR: 10 mM HEPES pH 7.5, 150 mM NaCl, 3 mM EDTA, 0.005% Tween 20, 10 C; recombinant protein; label: biotin.
Data set [1] has as its target Rel RHR homodimer (UniProt P15307). The experiment in a line: SPR. As to conditions: faster off-rate than on GGGGGTTTTT; SPR: 10 mM HEPES pH 7.5, 150 mM NaCl, 3 mM EDTA, 0.005% Tween 20, 10 C; recombinant protein; label: biotin.
Data set [2] has the same target. The experiment in a line: EMSA. As to conditions: EMSA: 10 mM Tris-HCl pH 7.5, 150 mM NaCl, 1 mM DTT, 1 mM EDTA, 5% glycerol, 80 ng/ul dI-dC, 200 ng/ul BSA, 4 C, off-rate with 100-fold unlabeled consensus, recombinant protein, label: 32P. For orientation: In EMSA bound probe runs differently from free probe, usually more slowly.
Data set [3] concerns RelA(C46) RHR chimera homodimer (mouse). As to the kind of experiment: SPR. As to conditions: half-life moderately below Rel, above RelA; SPR: 10 mM HEPES pH 7.5, 150 mM NaCl, 3 mM EDTA, 0.005% Tween 20, 10 C; recombinant protein; label: biotin.
Data set [4] deals with T1, RelA RHR zebrafish (zebrafish) (UniProt A0A8M2BI19).
T1 sequence (looked up, limits assumed): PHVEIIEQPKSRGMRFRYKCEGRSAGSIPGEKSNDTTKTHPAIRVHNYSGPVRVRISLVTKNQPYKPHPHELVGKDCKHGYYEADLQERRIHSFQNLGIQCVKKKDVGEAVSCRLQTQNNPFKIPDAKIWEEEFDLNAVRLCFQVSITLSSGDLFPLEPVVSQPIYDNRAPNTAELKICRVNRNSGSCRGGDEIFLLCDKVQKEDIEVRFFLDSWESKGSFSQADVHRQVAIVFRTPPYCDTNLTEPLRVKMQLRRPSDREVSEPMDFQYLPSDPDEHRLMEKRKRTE
The experiment in a line: EMSA off-rate. As to conditions: comparable to Rel; EMSA: 10 mM Tris-HCl pH 7.5, 150 mM NaCl, 1 mM DTT, 1 mM EDTA, 5% glycerol, 80 ng/ul dI-dC, 200 ng/ul BSA, 4 C; off-rate with 100-fold unlabeled consensus; protein in a lysate after overexpression; protein details: N-terminal Flag; label: 32P.

In another data set the target is Rel RHR mouse (mouse) (UniProt P15307). As to the kind of experiment: EMSA off-rate. As to conditions: EMSA: 10 mM Tris-HCl pH 7.5, 150 mM NaCl, 1 mM DTT, 1 mM EDTA, 5% glycerol, 80 ng/ul dI-dC, 200 ng/ul BSA, 4 C, off-rate with 100-fold unlabeled consensus, protein in a lysate after overexpression, protein details: N-terminal Flag, label: 32P.
Data set [5] addresses T2, Rel RHR human (Homo sapiens) (UniProt Q04864).
T2 sequence (looked up, limits assumed): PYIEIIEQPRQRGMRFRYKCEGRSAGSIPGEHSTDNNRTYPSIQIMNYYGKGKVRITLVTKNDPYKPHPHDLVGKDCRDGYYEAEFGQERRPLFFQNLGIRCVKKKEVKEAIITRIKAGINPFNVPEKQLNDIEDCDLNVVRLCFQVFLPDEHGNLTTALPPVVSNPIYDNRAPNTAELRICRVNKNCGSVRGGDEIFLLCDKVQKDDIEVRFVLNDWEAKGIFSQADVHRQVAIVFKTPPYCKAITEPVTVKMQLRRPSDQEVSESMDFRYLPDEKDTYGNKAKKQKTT
The experiment in a line: EMSA off-rate. As to conditions: EMSA: 10 mM Tris-HCl pH 7.5, 150 mM NaCl, 1 mM DTT, 1 mM EDTA, 5% glycerol, 80 ng/ul dI-dC, 200 ng/ul BSA, 4 C, off-rate with 100-fold unlabeled consensus, protein in a lysate after overexpression, protein details: N-terminal Flag, label: 32P.

For data set [6], the target named is Rel RHR zebrafish (zebrafish) (UniProt A0ACM8Q4Y4). The experiment in a line: EMSA off-rate. As to conditions: comparable to RelA; EMSA: 10 mM Tris-HCl pH 7.5, 150 mM NaCl, 1 mM DTT, 1 mM EDTA, 5% glycerol, 80 ng/ul dI-dC, 200 ng/ul BSA, 4 C; off-rate with 100-fold unlabeled consensus; protein in a lysate after overexpression; protein details: N-terminal Flag; label: 32P.

For data set [7], the target named is RelA RHR human (Homo sapiens) (UniProt Q04206). The experiment in a line: EMSA off-rate. As to conditions: faster than Rel; EMSA: 10 mM Tris-HCl pH 7.5, 150 mM NaCl, 1 mM DTT, 1 mM EDTA, 5% glycerol, 80 ng/ul dI-dC, 200 ng/ul BSA, 4 C; off-rate with 100-fold unlabeled consensus; protein in a lysate after overexpression; protein details: N-terminal Flag; label: 32P.

The next data set has as its target RelA RHR mouse (mouse) (UniProt Q04207). The experiment in a line: EMSA off-rate. As to conditions: faster than Rel; EMSA: 10 mM Tris-HCl pH 7.5, 150 mM NaCl, 1 mM DTT, 1 mM EDTA, 5% glycerol, 80 ng/ul dI-dC, 200 ng/ul BSA, 4 C; off-rate with 100-fold unlabeled consensus; protein in a lysate after overexpression; protein details: N-terminal Flag; label: 32P.
The target of another data set is Rel RHR R101Q R108Q (UniProt P15307). The experiment in a line: EMSA off-rate. As to conditions: faster off-rate than WT; EMSA: 10 mM Tris-HCl pH 7.5, 150 mM NaCl, 1 mM DTT, 1 mM EDTA, 5% glycerol, 80 ng/ul dI-dC, 200 ng/ul BSA, 4 C; off-rate with 100-fold unlabeled consensus; protein in a lysate after overexpression; label: 32P.
Another data set concerns the target Rel RHR R101A R108A (UniProt P15307). As to the kind of experiment: EMSA off-rate. As to conditions: difficult to detect, low affinity; EMSA: 10 mM Tris-HCl pH 7.5, 150 mM NaCl, 1 mM DTT, 1 mM EDTA, 5% glycerol, 80 ng/ul dI-dC, 200 ng/ul BSA, 4 C; off-rate with 100-fold unlabeled consensus; protein in a lysate after overexpression; label: 32P.
Where [8] appears, read: slowest-mobility (three-dimer) band lost.

For at least one entry, the source does not settle the construct or the ends of the probe. For some assays here: The comparison behind a weaker result is the experiment's own reference, which may not be listed here. For some assays here: Where cells or extracts were used, other partners may take part. For some assays here: At least one verdict was read from the data and is not stated in words by the source. For some assays here: Where a protein sequence is shown, tags need not be part of it.

In the case of “CCTAACATCAGGGGGGAGATTGATGTTAGG (double strand) [SPR GGGGGGAGAT]”, the binding result in the data set with RelA RHR homodimer and in the data set with Rel RHR homodimer [1] was “binds more weakly” throughout.

As for “ACCAACTTCTTAAAATTCCCCCAGAATGTTTTGACA (double strand) [κB1m+2+3]”, the binding result with Rel RHR homodimer [2] (setting [8]) is recorded as “binds more weakly”.

With “AGGAACTTCTTAAAATTAAACCAGAATGTTTTGACA (double strand) [κB1+2m+3]”, in the data set with Rel RHR homodimer [2] (setting [8]), the binding result is listed as “binds more weakly”.

Take “CCTAACATCAGGGGGTTTTTTGATGTTAGG (double strand) [SPR GGGGGTTTTT]”: the binding result is reported as “binds more weakly” with RelA RHR homodimer and “binds” in data set [3].

In the case of “CCTAACATCACACTAGTTTTTGATGTTAGG (double strand) [κB4 EMSA probe]”, the binding result with Rel RHR homodimer [2] (very weak, barely detectable) is given as “binds more weakly”.

For “CCTAACATCAAGAATGAAATTGATGTTAGG (double strand) [κB3m EMSA probe]”, in the data set with Rel RHR homodimer [2] (GTTTT half-site critical for binding), the binding result is “binds more weakly”.

Consider “TGGGGGTTTAAAGAAATTCCAGAGAGTCATCAG (double strand) [CD28 RE]”, for which the binding result in [4] is listed as “binds”; in the data set with Rel RHR mouse (mouse), “binds”; in data set [5], “binds”; in data set [6], “binds”; in data set [7], “binds more weakly”; with RelA RHR mouse (mouse) it was “binds more weakly”.

With “AGGAACTTCTTAAAATTCCCCCAGAATGAAATGACA (double strand) [κB1+2+3m]”, in the data set with Rel RHR homodimer [2] (setting [8]), the binding result is given as “binds more weakly”.

In the case of “CCTAACATCAAAAATTCCCCGATGTTAGG (double strand) [κB2 EMSA probe]”, the binding result is listed as “binds more weakly” with Rel RHR R101Q R108Q; “binds” in data set [4]; “binds” in the data set with Rel RHR mouse (mouse) (faster off-rate than consensus); “binds” in data set [5] (faster off-rate than consensus); “binds more weakly” in the data set with Rel RHR R101A R108A; “binds” in data set [6]. In addition, the binding result (in [7]; in the data set with RelA RHR mouse (mouse)) was “binds more weakly” throughout.
